According to PubChem BioAssay AID256 (DTP/NCI, 2004):
The list shows only some results of the screen, not a fair sample: it is rich in T/C values a quarter to a half above the control, in often repeated tests (any T/C) and in doses without a T/C. Other doses and runs of a compound stand elsewhere. T/C gives the treated animals as a percentage of the vehicle group. Some doses have a count of surviving animals in place of a T/C: the source files T/C as zero there, which appears to mark a toxic dose or a test without result, not a measured value. Some survivor counts are full or nearly so, which does not show that the dose was tolerated: survival well below the control is almost never listed, so the zero probably covers shortened survival too. Counts of survivors are from the toxicity check (mostly the fifth day) where no day follows; animals may have died later. Schedules are NCI's codes, read here as Q, the interval in days (D) or hours (H), X, the number of doses.

Tested on: CD2F1 mice, L1210 leukemia ip, survival T/C
Test: NCI In Vivo Anticancer Drug Screen. Data for tumor model L1210 Leukemia (intraperitoneal) in CD2F1 (CDF1) mice
Details: T/C endpoint: mean survival time, higher T/C = longer survival
Summary of the method: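 Transplantable tumor in mice; compound-treated vs vehicle-treated groups. Read-out = treated/control ratio of the measured endpoint.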

Compound: COc1ccccc1N=O
- survivor count (dose: 100.0 mg/kg/injection, schedule: Q01DX001 (ip), vehicle: Klucel (hydroxypropylcellulose) (HPC)): 0 of 3
- survivor count (dose: 200.0 mg/kg/injection, schedule: Q01DX001 (ip), vehicle: Klucel (hydroxypropylcellulose) (HPC)): 0 of 3
- survivor count (dose: 400.0 mg/kg/injection, schedule: Q01DX001 (ip), vehicle: Klucel (hydroxypropylcellulose) (HPC)): 0 of 3

Compound: O=C1C2C3C=CC(O3)C2C(=O)N1O (stereo unspecified)
- survivor count (dose: 50.0 mg/kg/injection, schedule: Q01DX009 (ip), vehicle: water): 6 of 6
- survivor count (dose: 100.0 mg/kg/injection, schedule: Q01DX009 (ip), vehicle: water): 3 of 6
- survivor count (dose: 200.0 mg/kg/injection, schedule: Q01DX009 (ip), vehicle: water): 0 of 6

Compound: O=[N+]([O-])c1ccc(Cl)c(CCl)c1
- survivor count (dose: 400.0 mg/kg/injection, schedule: Q01DX009 (ip), vehicle: saline with Tween-80): 4 of 6

Compound: CC(=O)OCc1ccc(/C=N/Nc2ccc([N+](=O)[O-])cc2[N+](=O)[O-])cc1Br
- survivor count (dose: 100.0 mg/kg/injection, schedule: Q04DX003 (ip), vehicle: saline): 5 of 6

Compound: NCCN1CCc2ccccc2C1
- survivor count (dose: 100.0 mg/kg/injection, schedule: Q04DX003 (ip), vehicle: Klucel (hydroxypropylcellulose) (HPC)): 2 of 6
- survivor count (dose: 200.0 mg/kg/injection, schedule: Q04DX003 (ip), vehicle: Klucel (hydroxypropylcellulose) (HPC)): 1 of 6
- survivor count (dose: 400.0 mg/kg/injection, schedule: Q04DX003 (ip), vehicle: Klucel (hydroxypropylcellulose) (HPC)): 0 of 6
